This assay can be described thus: qHTS Assay for Lipid Storage Modulators in Drosophila S3 Cells.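 As to cell number change: cells counted by Cell Tracker Red CMTPX staining in the red channel.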 The conditions noted are these: BODIPY lipid droplet fluorescence, 18-24 h; for cell number change: measured here: cell count max response, cells fed with added oleic acid. In short, it runs like this:
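Laser-scanning cytometry quantifies lipid droplet accumulation (500–530 nm total intensity; droplet/cell object ratio) in oleic acid-fed (400 uM added) Drosophila S3 cells treated with a concentration series. 20 uM Triacsin C defined 100% inhibition.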

Where [1] appears, read: measured here: lipid fluorescence (Fed channel) AC50, cells fed with added oleic acid.
Where [2] appears, read: measured here: cell number channel AC50, cells fed with added oleic acid.

The list shows a part of the results. The main result of the screen is listed elsewhere. These columns were measured beside it and carry no call. The list favours compounds with an active or inconclusive main result. The note in brackets gives the kind of curve behind each potency; many fits are weak.

In general, AC50 refers to the midpoint of the concentration-response curve, whichever way the signal moves. For the compound `OC(COc1ccc(F)cc1)CN1CCN(CC(O)COc2ccc(F)cc2)CC1` (stereo not given), the cell number change is -11.3%. Also, the AC50 under setting [1] is 29.1 µM [rising, single point].

Consider `Cc1cc(C)n(C(=O)C23CC4CC(CC(C4)C2)C3)n1`, for which the cell number change is -85.2%. Also, the AC50 under setting [2] is 29.1 µM [falling, single point].

Turning to `O=[N+]([O-])c1ccc(COc2ccc(Br)cc2CN2CCOCC2)cc1`, the cell number change came to 36.4%.

On to `O=C(O)c1ccccc1NCc1ccco1`, for which the cell number change was found to be 17.4%. Further, the AC50 under setting [1] is 0.00461 µM [rising, full curve, poor fit].

`O=C(O)/C=C\C(=O)NC1CCCCC1`: the cell number change amounted to 3.89%. Also, under setting [1], the AC50 was 6.51 µM [falling, partial curve].

As for `COc1ccc2c(c1)OC[C@H]1[C@H]2N2C(=O)CN(CC3CCCO3)C(=O)[C@@]2(C)[C@H]1c1ccccc1` (stereo not given in full), the cell number change is -9.63%. Also, under setting [1], the AC50 was 6.51 µM [falling, single point].

Turning to `O=C(CCNC(=O)C1CCN(S(=O)(=O)c2ccc(F)cc2)CC1)NC1CC1`, the cell number change is 14.9%. Moreover, the AC50 under setting [1] was 29.1 µM [rising, single point].

With `O=[N+]([O-])c1ccc(Sc2ncccn2)c([N+](=O)[O-])c1`, the cell number change is -56.3%. The AC50 under setting [2] is 11.6 µM [falling, partial curve]. For the same compound, the AC50 under setting [1] was 10.3 µM [falling, partial curve, poor fit].

For the compound `O=c1oc2ccccc2c(N2CCCC2)c1[N+](=O)[O-]`, the cell number change turned out to be 29.6%. Besides, the AC50 under setting [1] is 20.6 µM [rising, single point].

`O=C(NC(=S)Nc1cccc2c(O)cccc12)c1ccccc1[N+](=O)[O-]`: the AC50 under setting [1] is 0.58 µM [rising, single point].

For `C/C(=N\N=C(/N)SC1CC(=O)N(c2ccc(Cl)cc2)C1=O)c1cccs1` (stereo not given), the cell number change was -7.33%. Besides, under setting [1], the half-maximal activity concentration (AC50) is 29.1 µM [falling, single point].

In the case of `CCOC(=O)COn1c(=O)c(-c2ccc(Br)cc2)[n+]([O-])c2ccccc21`, the cell number change stood at 33.1%.

Take `CC1=CC2CC1C1C(=O)N(c3ccc(S(=O)(=O)Nc4nc(C)cc(C)n4)cc3)C(=O)C21` (stereo not given): the cell number change came to 13.8%. Further, under setting [1], the AC50 was 0.651 µM [falling, partial curve].

Take `CC(C)(C)NC(=O)CN(C(=O)C(=O)Nc1ccc2c(c1)OCCO2)C1CC1`: the cell number change is -22.9%. Under setting [1], the AC50 was 29.1 µM [falling, single point].

Consider `COC(=O)c1c(NC(=O)CSc2nc3ccccc3c(=O)n2-c2ccccc2)sc(C)c1C`, for which the cell number change is 2.98%.

Turning to `COc1cc(-c2cn(S(=O)(=O)c3cccc4nsnc34)nc2N)cc(OC)c1OC`, the cell number change is -7.14%. Moreover, under setting [2], the AC50 was 2.06 µM [rising, partial curve]. Besides, under setting [1], the AC50 was 0.731 µM [rising, single point].

For `CCCCN(C)CCN1C(=O)C2C(C(=O)Nc3cccc(OC)c3)C3C=CC2(O3)C1C(=O)NC1CCCCC1C` (stereo not given), the cell number change is -0.901%. For the same compound, the AC50 under setting [1] is 11.6 µM [falling, single point].

For the compound `CCC1Oc2ccc(C)cc2N(CC(=O)NCCCN2CCCCC2CC)C1=O` (stereo not given), the cell number change was -28.6%. Also, under setting [1], the AC50 is 0.411 µM [falling, full curve].

Consider `Cn1c(=O)c2c(=O)cc(N)[nH]c2n(C)c1=O`, for which the cell number change was -44.6%. Also, the AC50 under setting [2] was 23.1 µM [falling, partial curve, poor fit]. The AC50 under setting [1] is 9.2 µM [falling, partial curve].

Consider `CC(C)CC(=O)NC(=S)Nc1ccc(NC(=O)c2ccco2)cc1`, for which the cell number change was 12.9%. Also, the AC50 under setting [2] was 1.64 µM [rising, partial curve, poor fit].

Regarding `CC1CN(C(=O)c2c([N+](=O)[O-])cnn2C)CC(C)O1` (stereo not given), the cell number change was -43.6%. The half-maximal activity concentration (AC50) under setting [2] is 0.461 µM [falling, full curve]. The AC50 under setting [1] was 6.51 µM [falling, single point].

For `COc1ccc(OC)c(NC(=S)NCc2ccc(S(N)(=O)=O)cc2)c1`, the cell number change was 18.6%.

In the case of `c1ccc2c(c1)NCC1CCCN21` (stereo not given), the AC50 runs as follows: under setting [2], 6.51 µM [rising, single point]; under setting [1], 29.1 µM [falling, single point].

With `Cc1cc(C)c2nc(N3CCCC3)c(C#N)cc2c1`, the AC50 under setting [2] is 6.51 µM [rising, single point] and the AC50 under setting [1] is 0.517 µM [falling, full curve, poor fit].

Take `O=C(Cc1ccsc1)Nc1ccc(S(=O)(=O)C(F)F)cc1`: the cell number change was -22.7%.

With `Cc1ccc(S(=O)(=O)N2CCOCC2)cc1C(=O)Nc1ccc2c(c1)CCC2`, the cell number change is -7.06%. Besides, the AC50 under setting [1] is 0.82 µM [falling, full curve, poor fit].

On to `Cc1ccc(NC(=O)Nc2ncccc2C)cc1`, for which the cell number change is -11.4%. Besides, under setting [1], the AC50 is 2.59 µM [rising, single point].

With `CCOc1cc(C2C(C(=O)c3ccco3)=C(O)C(=O)N2Cc2ccccc2)ccc1O` (stereo not given), the cell number change was -5.13%. For the same compound, under setting [1], the AC50 is 0.116 µM [rising, single point].

Regarding `COc1ccc(NC(=S)Nc2ccc(OC)cc2OC)c(OC)c1`, the cell number change is -66.7%. Also, the AC50 under setting [2] was 0.146 µM [falling, partial curve, poor fit]. Further, the AC50 under setting [1] was 10.3 µM [rising, single point].

Take `CC(C)CCNC(=O)c1cc2c(=O)n3ccccc3nc2s1`: the cell number change is -36.9%. Further, the AC50 under setting [2] is 29.1 µM [falling, single point].

Consider `CCOc1ccc(S(=O)(=O)Nc2cccc(C(=O)N3CC(C)OC(C)C3)c2)cc1` (stereo not given), for which the cell number change is -15.4%. Besides, the concentration at half-maximal activity (AC50) under setting [1] is 0.146 µM [falling, full curve, poor fit].

On to `Cc1ccc2[nH]c3c(NCCCN4CCCC4=O)ncnc3c2c1`, for which the AC50 is 3.66 µM [rising, single point] under setting [2] and 3.26 µM [rising, full curve] under setting [1].

As for `CC12CCC(c3c(C(=O)Nc4nccs4)nn(-c4ccccc4)c31)C2(C)C` (stereo not given), the cell number change is -17.1%. Moreover, under setting [1], the AC50 is 1.64 µM [rising, full curve].

In the case of `Cc1nnc2sc(-c3csc4c3CCCC4)nn12`, the cell number change is 79.9%. In addition, under setting [1], the AC50 is 6.51 µM [falling, partial curve, poor fit].

For the compound `Cc1cc(C)c2c(=O)[nH]c(SCC(=O)NCc3ccccc3)nc2n1`, the AC50 under setting [1] is 29.1 µM [rising, single point].

Turning to `CC(c1ccccc1)C1CC(=O)N(CC(=O)O)C1=O` (stereo not given), the cell number change was -23.3%. Moreover, under setting [1], the AC50 was 4.11 µM [falling, full curve].

For `O=C(Cc1ccccc1)Nc1ccc(NC(=O)Cc2ccccc2)c(Cl)c1`, the cell number change was found to be 15.5%. Under setting [1], the AC50 is 29.1 µM [rising, single point].

Take `COC(=O)c1[nH]c2ccc(C)cc2c1NC(=O)CN1CCC(C)CC1`: the cell number change turned out to be 199%. The AC50 under setting [2] was 20.6 µM [rising, single point]. The AC50 under setting [1] was 0.731 µM [rising, single point].

In the case of `CCc1ccc(NC2=NCC(=O)N2c2ccc3c(c2)OCCO3)cc1`, the cell number change amounted to 32.7%.

With `Cc1ccc(S(=O)(=O)N(C)CC(=O)OCC(=O)NC(=O)NC(C)C)cc1`, the cell number change was 12%. In addition, the AC50 under setting [1] is 0.103 µM [rising, full curve, poor fit].

Regarding `O=C(CCNS(=O)(=O)c1ccc(Br)cc1)Nc1cccc(F)c1`, the cell number change was -20%. Under setting [2], the AC50 was 0.731 µM [falling, full curve, poor fit]. In addition, under setting [1], the AC50 was 29.1 µM [falling, single point].

For `CC(=O)Nc1ccc(C(=O)N/C(=C/c2ccccc2)C(=O)NCc2ccco2)cc1`, the cell number change was -3.63%. Besides, under setting [1], the AC50 was 6.51 µM [falling, single point].

Take `CCOc1ccc(NC(=O)CN2CCc3cc4c(cc3C2)OCCCO4)cc1OCC`: the cell number change was -7.41%.

As for `CC(=O)Nc1ccc(S(=O)(=O)Nc2nc3ccccc3nc2Nc2ccc(N)cc2)cc1`, the cell number change stood at 7.5%. The AC50 under setting [1] is 10.3 µM [rising, single point].

Turning to `O=C(O)C1=CC[C@@H](c2ccc(Cl)cc2)N(S(=O)(=O)c2ccc(Cl)cc2)[C@H]1c1ccccc1`, the cell number change amounted to 7.06%. Further, under setting [1], the AC50 is 2.31 µM [rising, partial curve].

As to `CCOC(=O)C1=C(C)NC(=O)NC1c1cn(-c2ccccc2)nc1-c1cccs1` (stereo not given), the cell number change is -28.3%.

For `CN(C)CCN(C(=O)C1CCCCC1)c1nc2cc3c(cc2s1)OCO3`, the cell number change came to 3.76%.

Turning to `COc1ccc(C2C3=C(N=C4SCC(=O)N42)c2ccccc2CC3)cc1` (stereo not given), the AC50 under setting [1] is 20.6 µM [falling, single point].

Consider `COc1ccccc1-c1nn2c(=O)cc(C)nc2s1`, for which the AC50 is 2.06 µM [rising, partial curve] under setting [2] and 1.46 µM [rising, partial curve] under setting [1].

Take `Cc1cc(C)nc(Nc2ncc(O)n2-c2ccc(C)c(Cl)c2)n1`: the cell number change was 78.3%. Also, under setting [2], the AC50 was 0.731 µM [rising, partial curve].

Regarding `Cc1nc2cc(-c3ccc(Cl)cc3)nn2c(C)c1CCC(=O)NCc1ccco1`, the cell number change worked out at 23%. The AC50 under setting [1] is 29.1 µM [rising, single point].

Take `COc1cccc(-c2nnn(CC(=O)N3CCC(C)CC3)n2)c1`: the cell number change worked out at 6.32%. Also, under setting [1], the AC50 was 29.1 µM [rising, single point].

As for `CC1CCCN(C(=O)COC(=O)c2ccc[nH]c2=O)C1` (stereo not given), the cell number change is -37.8%. The AC50 under setting [2] is 0.0461 µM [falling, full curve]. Besides, the AC50 under setting [1] was 3.26 µM [falling, full curve].

As to `COc1ccccc1NC(=O)CSc1ccc2nnc(-c3ccc(C)cc3)n2n1`, the cell number change was -12%. For the same compound, the AC50 under setting [1] was 4.11 µM [falling, single point].

With `CC(C)[C@H](NS(=O)(=O)c1ccccc1)C(=O)OCC(=O)Nc1ccccc1Sc1ccccc1`, the cell number change is -14.2%. Under setting [1], the AC50 was 29.1 µM [falling, single point].

Turning to `CCCN1C(=O)C(O)(C2CC(=O)CC(C)(C)O2)c2ccccc21` (stereo not given), the cell number change is -0.312%.

`CCOC(=O)C1=C(COc2ccccc2)NC(=O)NC1c1ccc(Br)cc1` (stereo not given): the cell number change was -24.3%.

As for `CN(Cc1ccccc1)C(=O)c1ccc(NC(=O)Cc2cccc(NC(=O)C3CCCN(C(=O)C4CCCC4)C3)c2)cc1` (stereo not given), the cell number change is -27.9%. Besides, the AC50 under setting [1] is 13 µM [falling, partial curve, poor fit].

Regarding `CCc1noc(C)c1C(=O)NNC(=O)c1ccccc1Cl`, the cell number change was -14.7%. The AC50 under setting [1] is 0.58 µM [falling, full curve, poor fit].

For the compound `CCN(CC)CCCn1c2c(c(SCC(=O)Nc3ccccc3Cl)nc1=O)CCC2`, the cell number change was -25%. The AC50 under setting [2] is 5.17 µM [rising, partial curve]. Further, the AC50 under setting [1] was 0.13 µM [rising, full curve, poor fit].

Values taken from PubChem BioAssay AID2685 (National Center for Advancing Translational Sciences (NCATS), 2010).
